In patent publication US20070225335A1, “Pyrazole Derivatives for Treating Condit Ions Mediated by Activation of the Adeno Sine A2B or A3 Receptor” (priority 2004, published 2007):
The structures given here were assigned with low confidence; some may be wrong.

By UniProt entry, the sequences of proteins in these tests, tags left out.
UniProt P29275, whole entry: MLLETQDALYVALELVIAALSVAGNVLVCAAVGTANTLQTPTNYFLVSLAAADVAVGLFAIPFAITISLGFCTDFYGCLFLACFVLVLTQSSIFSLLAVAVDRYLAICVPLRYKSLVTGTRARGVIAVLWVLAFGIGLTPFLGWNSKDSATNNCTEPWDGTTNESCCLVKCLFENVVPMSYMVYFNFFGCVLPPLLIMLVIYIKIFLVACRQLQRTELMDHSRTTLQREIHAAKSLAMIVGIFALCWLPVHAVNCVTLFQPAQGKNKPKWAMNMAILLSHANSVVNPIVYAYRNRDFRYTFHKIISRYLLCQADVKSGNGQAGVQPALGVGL

Target: human adenosine A2b receptor (Homo sapiens, UniProt P29275)
Test: Adenosine A2b receptor reporter gene assay (luciferase, CHO-A2b cells, NECA agonist)
Conditions: read-out: KB values in the reporter gene assay; CHO cells with pCRE-LUCI and human A2b receptor; shift of NECA concentration-response curve; antagonist at 100 nM or 1 μM; KB=[antagonist]/(concentration ratio−1)
Protocol: Adenosine A2b Receptor Reporter Gene Assay a) Culturing of Chinese Hamster Ovary (CHO) A2b Cell Line
CHO cells transfected with a Luciferase-expressing reporter plasmid (pCRE-LUCI) and with a plasmid carrying the human adenosine A2b receptor structural gene (pA2bRCV) are routinely cultured in Dulbecco's Modified Eagle Medium (DMEM)—supplemented with 10% v/v fetal calf serum (FCS), 2 mM L-glutamine, 0.4 mg/ml L-proline, 1 nM sodium selenite, 0.5 mg/ml Hygromycin B and 1 mg/ml Geneticin—at 37° C., 5% CO2 and 100% humidity. The cells are left to grow to confluence for 4-5 days. The cells obtained are passaged using trypsin/EDTA and split at a ratio of 1 in 5. […]
b) Preparation of cells for assay
Prior to the assay, the CHO-A2b cells are plated onto white 96-well View Plate tissue culture plates (Packard) at a density of 50,000 cells per well in 50 μl of DMEM, and the plates are incubated at 37° C., 5% CO2 and 100% humidity. […]
c) Preparation of Reference and Test Compounds
10 mM solutions of the reference compound, Xanthine Amine Cogener (XAC), and the test compound in dimethyl sulfoxide (DMSO) are prepared. […]
5′-N-ethylcarboxamidoadenosine (NECA), an adenosine A2b agonist, is prepared as a […] solution in DMSO and then diluted to 100 μM with Assay Buffer. […] 100 μl of Steady-Glo, a Luciferase assay substrate from Promega, is added to all wells to lyse the cells and generate luminescence in proportion to the amount of Lucifrease produced. The plates are left for a minimum of 5 minutes before being read on the luminescence program of a Topcount NXT microplate scintillation counter (ex Packard). Concentration—response curves are plotted from the luminescence data using Activitybase software and KB values for the antagonists under test are calculated from the shifts of the curve at a particular concentration (KB=[antagonist]/(concentration ratio−1)

O=C(Nc1cccc(F)c1)c1cnn(-c2cccc(Cl)c2)c1-c1ccncc1
Kb: 224 nM

O=C(Nc1cccnc1)c1cc(-c2ccncc2)n(-c2cccc(Cl)c2)n1
Kb: 240 nM

COc1cccc(NC(=O)c2cnn(-c3cccc(F)c3)c2-c2ccncc2)c1
Kb: 41 nM
